Test results from patent US20150246945A1 (JAPANESE FOUNDATION FOR CANCER RESEARCH, published 2015).
Results are given in words; binding and its absence hold for the method and conditions named. For part of these data: In cells and extracts the contact can be indirect. Some entries that bind do so weakly or less than the wild type. For part of these data: Where a sequence is shown, tags or fusion partners need not be part of it.

Assays:
[1] = target: T1, purified EpCAM (extracellular domain with myc and His tags at the C terminus, expressed in HEK-293T cells) (UniProt P16422); experiment: pull-down of EpCAM on peptide-loaded streptavidin magnetic beads, Western blot
T1 sequence (looked up): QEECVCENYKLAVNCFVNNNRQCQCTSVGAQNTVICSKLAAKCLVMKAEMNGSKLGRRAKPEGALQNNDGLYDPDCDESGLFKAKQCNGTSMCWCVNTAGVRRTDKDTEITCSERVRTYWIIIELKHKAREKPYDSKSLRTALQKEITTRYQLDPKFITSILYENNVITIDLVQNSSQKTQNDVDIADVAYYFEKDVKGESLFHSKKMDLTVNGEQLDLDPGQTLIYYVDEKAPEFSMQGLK

[2] = target: T2, EpCAM, whole protein on cells (HT-29, MCF-7, 293T transfected with full-length EpCAM plasmid pkk196) or on exosomes isolated from HT-29 cells (UniProt P16422); experiment: PKH26-labeled exosomes on peptide-loaded streptavidin beads, fluorescence intensity
T2 sequence (looked up): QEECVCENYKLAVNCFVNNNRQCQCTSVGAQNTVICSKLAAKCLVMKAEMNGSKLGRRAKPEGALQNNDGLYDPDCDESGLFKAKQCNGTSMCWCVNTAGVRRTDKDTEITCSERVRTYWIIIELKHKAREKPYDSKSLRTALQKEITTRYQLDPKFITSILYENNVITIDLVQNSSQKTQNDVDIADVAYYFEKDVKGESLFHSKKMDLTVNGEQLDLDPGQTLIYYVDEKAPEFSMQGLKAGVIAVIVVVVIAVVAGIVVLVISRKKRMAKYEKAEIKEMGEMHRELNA

[3] = target: T2, EpCAM, whole protein on cells (HT-29, MCF-7, 293T transfected with full-length EpCAM plasmid pkk196) or on exosomes isolated from HT-29 cells; experiment: pull-down of HT-29 exosomes on peptide-loaded streptavidin beads, Western blot with anti-EpCAM

Measured: binding

KHLQCVRNICWS (biotinylated at the stage of synthesis (position not given)) [biotinylated Ep114 peptide (linker-free)]
binds: all assays above
